Measurements published in the supplement of paper PMC12282887.

Tested on: Escherichia coli BW25113
Assay: growth (OD600 area under curve, 8 h) (OD600 x h); higher = more growth
Description: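 E. coli BW25113 reporter strains (wild type, ΔmarA, ΔsoxS, Δrob, each carrying one of 8 lux reporter plasmids) were grown in 40 µl LB in 384-well plates at 37°C, 800 rpm, with each compound at 4 two-fold concentrations, in biological duplicates. Growth is the baseline-corrected OD600 area under the curve over 8 h (0-8 h WT, 1-9 h deletion strains).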

C[C@H]1[C@H](NC(=O)/C(=N\OC(C)(C)C(=O)O)c2csc(N)n2)C(=O)N1S(=O)(=O)O [Aztreonam]
growth
Settings | reporter plasmid: EVC | reporter plasmid: acrABp | reporter plasmid: marRABp | reporter plasmid: micFp | reporter plasmid: ompFp | reporter plasmid: robp | reporter plasmid: soxSp | reporter plasmid: tolCp
0.0054 µg/ml, genetic background: wild type | 2.61 ± 0.05 | 2.8 ± 0.08 | 3.03 ± 0.31 | 2.83 ± 0.57 | 2.61 ± 0.21 | 2.81 ± 0.35 | 2.58 ± 0.095 | 2.79 ± 0.41
0.0054 µg/ml, genetic background: ΔmarA | 2.841 ± 0.026 | 3.4 ± 1.3 | 2.77 ± 0.77 | 2.76 ± 0.06 | 2.65 ± 0.97 | 2.72 ± 0.75 | 2.31 ± 0.22 | 2.66 ± 0.33
0.0054 µg/ml, genetic background: Δrob | 2.12 ± 0.41 | 3.04 ± 0.24 | 3.05 ± 0.51 | 2.78 ± 0.052 | 1.81 ± 0.62 | 2.235 ± 0.015 | 2.62 ± 0.17 | 2.56 ± 0.026
0.0054 µg/ml, genetic background: ΔsoxS | 2.48 ± 0.2 | 2.77 ± 1.1 | 2.99 ± 0.77 | 2.27 ± 0.089 | 2.64 ± 0.55 | 2.96 ± 0.23 | 2.75 ± 0.62 | 2.56 ± 0.31
0.011 µg/ml, genetic background: wild type | 2.65 ± 0.051 | 3.06 ± 0.42 | 2.96 ± 0.2 | 2.75 ± 0.39 | 2.79 ± 0.34 | 3 ± 0.51 | 2.43 ± 0.064 | 2.54 ± 0.46
0.011 µg/ml, genetic background: ΔmarA | 3.04 ± 0.056 | 3.54 ± 0.99 | 3.37 ± 0.75 | 3.09 ± 0.13 | 2.61 ± 0.86 | 3.14 ± 1 | 2.31 ± 0.28 | 2.67 ± 0.39
0.011 µg/ml, genetic background: Δrob | 2.19 ± 0.54 | 3.77 ± 0.46 | 3.1 ± 0.52 | 2.51 ± 0.22 | 2.14 ± 0.39 | 2.48 ± 0.12 | 2.47 ± 0.29 | 2.28 ± 0.22
0.011 µg/ml, genetic background: ΔsoxS | 2.31 ± 0.17 | 2.96 ± 1.1 | 2.95 ± 0.59 | 2.04 ± 0.021 | 2.31 ± 0.18 | 2.93 ± 0.16 | 2.57 ± 0.71 | 2.36 ± 0.24
0.022 µg/ml, genetic background: wild type | 2.43 ± 0.029 | 3 ± 0.36 | 2.71 ± 0.42 | 2.71 ± 0.38 | 2.64 ± 0.26 | 2.57 ± 0.086 | 2.55 ± 0.12 | 2.42 ± 0.41
0.022 µg/ml, genetic background: ΔmarA | 2.38 ± 0.33 | 2.19 ± 0.33 | 2.72 ± 0.2 | 2.48 ± 0.07 | 2.32 ± 0.7 | 2.17 ± 0.25 | 2.22 ± 0.28 | 2.43 ± 0.093
0.022 µg/ml, genetic background: Δrob | 1.99 ± 0.22 | 2.84 ± 0.23 | 2.75 ± 0.22 | 2.07 ± 0.42 | 1.57 ± 0.13 | 2.17 ± 0.55 | 2.32 ± 0.27 | 2.28 ± 0.18
0.022 µg/ml, genetic background: ΔsoxS | 2.19 ± 0.38 | 2.6 ± 0.96 | 2.9 ± 0.69 | 1.93 ± 0.031 | 2.14 ± 0.068 | 3.11 ± 0.12 | 2.54 ± 1 | 2.43 ± 0.4
0.044 µg/ml, genetic background: wild type | 0.857 ± 0.17 | 0.00262 ± 0.011 | 0.0219 ± 0.025 | 0.0497 ± 0.1 | -0.0961 ± 0.0047 | -0.0692 ± 0.012 | 1.13 ± 0.36 | 0.61 ± 0.77
0.044 µg/ml, genetic background: ΔmarA | -0.105 ± 0.29 | 0.0639 ± 0.15 | -0.0247 ± 0.032 | -0.079 ± 0.015 | -0.0495 ± 0.011 | -0.0822 ± 0.042 | 0.888 ± 0.48 | -0.0775 ± 0.065
0.044 µg/ml, genetic background: Δrob | -0.264 ± 0.56 | 0.00596 ± 0.056 | -0.0122 ± 0.069 | -0.0634 ± 0.012 | -0.0342 ± 0.015 | -0.0754 ± 0.015 | 0.589 ± 0.69 | 0.0713 ± 0.17
0.044 µg/ml, genetic background: ΔsoxS | 0.228 ± 0.29 | -0.0545 ± 0.11 | -0.0567 ± 0.054 | -0.028 ± 0.048 | -0.0348 ± 0.032 | -0.044 ± 0.053 | 0.0324 ± 0.025 | 0.232 ± 0.014

± gives the standard deviation of the averaged measurements. Values are raw readings; no control value is given beside them.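 Maximum concentrations were near the MIC for antimicrobials, 500 µM for most other compounds, and as high as 1 mM for known inducer-like compounds. Deletion strains began with a tenfold smaller inoculum, and wells with growth under 10% of the overall median counted as non-growing.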
